Values quoted from earlier work as cited in patent publication US20150018418A1, “COMPOSITIONS AND METHODS FOR PROLONGING PREGNANCY” (priority 2013, published 2015).
Like-named read-outs stand apart in the source and are kept apart here. For at least one compound, name, drawing or mass did not settle the structure. Some entries share one result that the patent states for a list of compounds.

System: preterm labor / premature birth
Settings: cited from earlier work
[1] = tocolysis of PTL, background statement b6

| Compound | prolongation of pregnancy by tocolytic (nifedipine as commonly used tocolytic, statement b41) | prolongation of pregnancy by tocolytic [1] |
| --- | --- | --- |
| COC(=O)C1=C(C)NC(C)=C(C(=O)OC)C1c1ccccc1[N+](=O)[O-] [nifedipine] | 2 to 5 days | 2 to 7 days |
| CC(C)(C)NCC(O)c1cc(O)cc(O)c1 (stereo not drawn) [terbutaline] |  | 2 to 7 days |
